{"source": "PubChem BioAssay AID2685", "about": "(National Center for Advancing Translational Sciences (NCATS), 2010)", "test": "qHTS Assay for Lipid Storage Modulators in Drosophila S3 Cells;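 for cell number change: cells counted by Cell Tracker Red CMTPX staining in the red channel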", "details": "BODIPY lipid droplet fluorescence, 18-24 h; for cell number change: measured here: cell count max response, cells fed with added oleic acid", "summary_of_the_method": "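Laser-scanning cytometry quantifies lipid droplet accumulation (500–530 nm total intensity; droplet/cell object ratio) in oleic acid-fed (400 uM added) Drosophila S3 cells treated with a concentration series. 20 uM Triacsin C defined 100% inhibition.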", "key": {"[1]": {"details": "measured here: cell number channel AC50, cells fed with added oleic acid"}, "[2]": {"details": "measured here: lipid fluorescence (Fed channel) AC50, cells fed with added oleic acid"}}, "note": "The other results are listed elsewhere or left out. Shown are side measurements of this screen, not its main read-out; they come without a call. Compounds called inactive in the main read-out are mostly missing here. Potencies come from curve fits of mixed quality, noted in brackets."}
{"smiles": "NC(=O)C1CCN(C(=O)CSc2nc3ccccc3[nH]2)CC1", "values": [{"measurement": "cell number change", "value": -63.9, "unit": "%"}, {"measurement": "AC50", "setting": "[1]", "value": "1.84 µM [falling, partial curve, poor fit]"}, {"measurement": "AC50", "setting": "[2]", "value": "23.1 µM [falling, partial curve]"}]}
{"smiles": "Cc1c(-c2ccn[nH]2)cc(NC(=O)c2ccc(Cl)cc2)c(=O)n1N", "values": [{"measurement": "cell number change", "value": 61, "unit": "%"}, {"measurement": "AC50", "setting": "[1]", "value": "0.731 µM [rising, full curve]"}, {"measurement": "AC50", "setting": "[2]", "value": "18.4 µM [rising, single point]"}]}
{"smiles": "O=C(Cc1ccccc1)N/N=C/c1ccccc1OCc1ccc(Cl)cc1", "values": [{"measurement": "cell number change", "value": 11.8, "unit": "%"}, {"measurement": "AC50", "setting": "[2]", "value": "18.4 µM [falling, single point]"}]}
{"smiles": "Cc1[nH]nc2ncc(C(=O)c3cc(Cl)cc(Cl)c3O)cc12", "values": [{"measurement": "AC50", "setting": "[2]", "value": "2.91 µM [rising, partial curve]"}]}
{"smiles": "Cc1ccc(NC(=S)N2CCCC(c3ccccc3)=N2)cc1", "values": [{"measurement": "cell number change", "value": 12.4, "unit": "%"}, {"measurement": "AC50", "setting": "[2]", "value": "2.06 µM [rising, partial curve, poor fit]"}]}
{"smiles": "COc1ccccc1NC(=O)C[n+]1ccccc1C", "values": [{"measurement": "cell number change", "value": -13.5, "unit": "%"}]}
{"smiles": "COc1ccc(C(OCC(O)CN2CCC(O)CC2)c2ccc(OC)cc2)cc1", "note": "(stereo unspecified)", "values": [{"measurement": "cell number change", "value": 11.5, "unit": "%"}]}
{"smiles": "CC1CC(C)CN(Cc2nc(N)nc(Nc3ccc4ccccc4c3)n2)C1", "note": "(stereo unspecified)", "values": [{"measurement": "AC50", "setting": "[1]", "value": "0.411 µM [rising, single point]"}]}
{"smiles": "COc1ccc(NC(=O)CN(C)C(=O)c2ccc(N3CCCCC3)c([N+](=O)[O-])c2)cc1", "values": [{"measurement": "cell number change", "value": -11.8, "unit": "%"}, {"measurement": "AC50", "setting": "[2]", "value": "0.517 µM [falling, full curve]"}]}
{"smiles": "Cc1ccc(C(=O)Nc2ccc3nccnc3c2)cc1", "values": [{"measurement": "cell number change", "value": -11.8, "unit": "%"}, {"measurement": "AC50", "setting": "[2]", "value": "29.1 µM [rising, single point]"}]}
{"smiles": "CC(Oc1cc2oc(=O)c3c(c2cc1Cl)CCC3)C(=O)NCCCN1CCCC1=O", "note": "(stereo unspecified)", "values": [{"measurement": "AC50", "setting": "[2]", "value": "0.13 µM [falling, full curve, poor fit]"}]}
{"smiles": "CC1(C)CC2CC(C)(CN2c2ncnc3ccc(Br)cc23)C1", "note": "(stereo unspecified)", "values": [{"measurement": "cell number change", "value": -47.4, "unit": "%"}, {"measurement": "AC50", "setting": "[1]", "value": "20.6 µM [falling, single point]"}, {"measurement": "AC50", "setting": "[2]", "value": "29.1 µM [falling, single point]"}]}
{"smiles": "C[C@H](OC(=O)N1CCN(C(c2ccccc2)c2ccccc2)CC1)[C@@H]1O[C@@]2(C)CCC[C@H]1O2", "values": [{"measurement": "cell number change", "value": 9.24, "unit": "%"}, {"measurement": "AC50", "setting": "[2]", "value": "25.9 µM [rising, single point]"}]}
{"smiles": "CCOC(=O)c1sc(/N=C/c2ccc(O)cc2O)cc1C", "values": [{"measurement": "cell number change", "value": 20.5, "unit": "%"}]}
{"smiles": "Nc1ccc2c(c1)CC(=O)c1ccccc1S2", "values": [{"measurement": "cell number change", "value": -53.2, "unit": "%"}, {"measurement": "AC50", "setting": "[1]", "value": "29.1 µM [falling, single point]"}, {"measurement": "AC50", "setting": "[2]", "value": "2.31 µM [rising, partial curve, poor fit]"}]}
{"smiles": "N/C(=N\\NS(=O)(=O)c1ccccc1C(F)(F)F)c1ccccn1", "values": [{"measurement": "cell number change", "value": -37.2, "unit": "%"}, {"measurement": "AC50", "setting": "[1]", "value": "16.4 µM [falling, single point]"}, {"measurement": "AC50", "setting": "[2]", "value": "29.1 µM [falling, single point]"}]}
